Values from PubChem BioAssay AID1259308 (NCATS, 2017)
In all, the deposit lists about 59,000 reagents; this is a random part of them. About 1,510 of them (2.6%) were called active. 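Calls use total luciferase alone and ignore viability, so some active siRNAs may act by altering cell number.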

Aim: 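Genes whose loss raises luciferase production in HEK293 cells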 (primary screen)
Cell system: human HEK293 embryonic kidney cells stably expressing firefly luciferase (HEK-CMV-Luc2-Hygro)
Reagent: single siRNA against human genes, 0.8 pmol siRNA per well
Time to read-out: 72 h
Measured: 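Luciferase light (ONE-Glo) measured on one replicate plate set and viability (CellTiter-Glo) on the other, scaled to a negative control siRNA, with robust z-scores and luciferase per cell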
Scale: total luciferase, z-score and total luciferase, % of control: higher = more reporter protein produced; luciferase per cell, z-score: higher = more reporter output per viable cell; viable cells, % of control: higher = more viable cells
Call rule: 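An siRNA counts as active if its total luciferase robust z-score exceeds 3; genes with two or more such siRNAs out of three were retested with fresh siRNAs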
Meaning of the calls: active = raised luciferase; inactive = no rise

| total luciferase, z-score | total luciferase, % of control | luciferase per cell, z-score | viable cells, % of control | activity call | gene | PubChem SID |
| --- | --- | --- | --- | --- | --- | --- |
| -1.48 | 52.4 | -0.784 | 72 | inactive | INPP5E (inositol polyphosphate-5-phosphatase E) | SID160745080 |
| -1.72 | 47.6 | -1.62 | 81.5 | inactive | INPP5E (inositol polyphosphate-5-phosphatase E) | SID160745081 |
| 0.82 | 98.2 | 1.7 | 70.1 | inactive | INPP5E (inositol polyphosphate-5-phosphatase E) | SID160745082 |
| -1.55 | 51 | -2.01 | 96.7 | inactive | TMEM192 (transmembrane protein 192) | SID160761034 |
| 1.7 | 116 | 1.31 | 91.4 | inactive | TMEM192 (transmembrane protein 192) | SID160761035 |
| -1.3 | 56.1 | -0.905 | 79.6 | inactive | TMEM192 (transmembrane protein 192) | SID160761036 |
| -0.305 | 75.8 | -0.492 | 96.5 | inactive | ABCG1 (ATP binding cassette subfamily G member 1) | SID160722628 |
| -0.137 | 79.2 | -0.924 | 113 | inactive | ABCG1 (ATP binding cassette subfamily G member 1) | SID160722629 |
| -0.455 | 72.8 | -1.01 | 106 | inactive | ABCG1 (ATP binding cassette subfamily G member 1) | SID160722630 |
| 0.0415 | 82.7 | 0.153 | 88.8 | inactive | DGCR2 (DiGeorge syndrome critical region gene 2) | SID160723631 |
| 1.74 | 116 | 1.87 | 79.5 | inactive | DGCR2 (DiGeorge syndrome critical region gene 2) | SID160723632 |
| 0.543 | 92.7 | 0.823 | 83.4 | inactive | DGCR2 (DiGeorge syndrome critical region gene 2) | SID160723634 |
| -1.36 | 54.8 | -0.972 | 79.1 | inactive | TRAPPC6A (trafficking protein particle complex subunit 6A) | SID160724541 |
| -1.27 | 56.6 | -0.733 | 76.8 | inactive | TRAPPC6A (trafficking protein particle complex subunit 6A) | SID160748630 |
| -0.573 | 70.5 | -0.93 | 101 | inactive | TRAPPC6A (trafficking protein particle complex subunit 6A) | SID160748631 |
| 1.84 | 118 | 1.7 | 84.6 | inactive | IL31RA (interleukin 31 receptor A) | SID160757241 |
| 0.45 | 90.8 | 0.527 | 88.3 | inactive | IL31RA (interleukin 31 receptor A) | SID160757242 |
| -0.155 | 78.8 | -0.963 | 113 | inactive | IL31RA (interleukin 31 receptor A) | SID160757243 |
| -0.113 | 79.6 | 0.722 | 73.6 | inactive | RAB5A (RAB5A, member RAS oncogene family) | SID160715538 |
| 1.01 | 102 | 0.499 | 99.9 | inactive | RAB5A (RAB5A, member RAS oncogene family) | SID160715539 |
| 1.1 | 104 | 0.905 | 91.3 | inactive | RAB5A (RAB5A, member RAS oncogene family) | SID160715541 |
| 0.54 | 92.6 | 0.0332 | 103 | inactive | PLAC9 (placenta associated 9) | SID160732681 |
| 3.28 | 147 | 2.14 | 93.7 | active | PLAC9 (placenta associated 9) | SID160761231 |
| -0.185 | 78.2 | 0.126 | 84.5 | inactive | PLAC9 (placenta associated 9) | SID160761232 |
